{"source": "patent US10195190B2", "about": "“Local delivery forms of acriflavine for treating tumors” (The Johns Hopkins University, priority 2015, dated 2019)", "origin": "cited, not measured here", "test_system": "GBM", "conditions": "TMZ and RT treatment, newly diagnosed GBM patients; 12.1 months with RT alone; cited from earlier work", "note": "At least one compound was matched to its structure with a doubt left.", "data": [{"smiles": "Cn1nnc2c(C(N)=O)ncn2c1=O", "note": "[temozolomide, Temozolomide]", "values": [{"measurement": "median survival", "value": 14.6, "unit": "months"}]}]}
